Experimental data taken from patent publication US20220175895A1.
These are yes or no findings as the source states them, for the method shown. Binding seen in cells or lysates may run through a third protein. Some entries that bind do so weakly or less than the wild type.

Chains of the proteins cited; added tags and fusions are not shown.
UniProt Q8NEB9: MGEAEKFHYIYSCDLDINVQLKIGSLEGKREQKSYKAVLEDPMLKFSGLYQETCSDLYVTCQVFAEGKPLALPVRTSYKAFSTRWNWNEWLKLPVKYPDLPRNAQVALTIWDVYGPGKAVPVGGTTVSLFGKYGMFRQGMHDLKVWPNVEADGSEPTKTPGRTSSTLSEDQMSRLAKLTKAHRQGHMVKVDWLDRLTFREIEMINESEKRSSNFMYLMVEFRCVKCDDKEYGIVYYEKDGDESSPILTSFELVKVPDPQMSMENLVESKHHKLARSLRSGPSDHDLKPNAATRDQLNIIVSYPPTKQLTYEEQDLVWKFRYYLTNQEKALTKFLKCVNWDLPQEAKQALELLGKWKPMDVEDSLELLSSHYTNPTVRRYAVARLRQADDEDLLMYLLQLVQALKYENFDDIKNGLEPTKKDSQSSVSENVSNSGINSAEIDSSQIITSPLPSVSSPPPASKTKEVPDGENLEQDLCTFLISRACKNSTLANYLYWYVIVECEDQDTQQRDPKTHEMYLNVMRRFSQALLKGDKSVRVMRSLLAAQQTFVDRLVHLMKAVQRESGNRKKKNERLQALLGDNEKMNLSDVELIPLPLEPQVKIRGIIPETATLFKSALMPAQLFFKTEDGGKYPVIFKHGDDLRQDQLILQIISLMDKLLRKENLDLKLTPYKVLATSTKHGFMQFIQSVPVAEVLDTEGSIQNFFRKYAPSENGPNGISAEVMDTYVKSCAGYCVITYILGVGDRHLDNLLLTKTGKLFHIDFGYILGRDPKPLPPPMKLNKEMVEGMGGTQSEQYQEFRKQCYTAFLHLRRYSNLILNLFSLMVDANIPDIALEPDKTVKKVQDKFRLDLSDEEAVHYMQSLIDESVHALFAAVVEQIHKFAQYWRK
UniProt Q15386: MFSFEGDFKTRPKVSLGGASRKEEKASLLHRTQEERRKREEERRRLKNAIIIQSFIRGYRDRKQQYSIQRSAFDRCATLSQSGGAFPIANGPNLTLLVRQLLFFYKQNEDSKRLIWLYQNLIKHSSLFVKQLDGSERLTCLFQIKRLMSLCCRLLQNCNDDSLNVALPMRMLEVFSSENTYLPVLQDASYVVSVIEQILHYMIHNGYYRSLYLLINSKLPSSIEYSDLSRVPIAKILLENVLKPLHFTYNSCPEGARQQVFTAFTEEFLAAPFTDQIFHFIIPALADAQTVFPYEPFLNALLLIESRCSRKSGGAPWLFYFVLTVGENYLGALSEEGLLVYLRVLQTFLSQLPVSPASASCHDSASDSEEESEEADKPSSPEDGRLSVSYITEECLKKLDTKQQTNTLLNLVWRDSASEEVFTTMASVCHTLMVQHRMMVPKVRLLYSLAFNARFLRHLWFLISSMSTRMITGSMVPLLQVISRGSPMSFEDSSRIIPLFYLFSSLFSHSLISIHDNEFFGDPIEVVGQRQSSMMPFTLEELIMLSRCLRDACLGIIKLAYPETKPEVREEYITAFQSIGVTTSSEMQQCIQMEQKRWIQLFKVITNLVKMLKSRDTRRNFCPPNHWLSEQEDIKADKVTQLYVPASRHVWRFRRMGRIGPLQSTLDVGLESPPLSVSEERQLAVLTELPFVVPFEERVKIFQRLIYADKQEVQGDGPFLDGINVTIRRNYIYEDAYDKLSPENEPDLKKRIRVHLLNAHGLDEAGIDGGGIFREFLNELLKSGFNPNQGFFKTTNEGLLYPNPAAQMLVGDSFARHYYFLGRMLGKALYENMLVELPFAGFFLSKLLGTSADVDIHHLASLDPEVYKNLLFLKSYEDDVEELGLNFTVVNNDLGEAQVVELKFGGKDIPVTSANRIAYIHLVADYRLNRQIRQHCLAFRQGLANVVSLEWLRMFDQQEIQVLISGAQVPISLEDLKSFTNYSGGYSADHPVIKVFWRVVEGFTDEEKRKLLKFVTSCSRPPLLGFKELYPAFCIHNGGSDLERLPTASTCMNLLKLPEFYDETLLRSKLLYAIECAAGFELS

Legend:
Flag-VPS34 [1] = target: Flag-VPS34 (UniProt Q8NEB9); experiment: in vitro pull-down, Flag-VPS34 on anti-Flag M2 beads with purified HA-UBE3C, Western blot (FIG. 3B)
Flag-VPS34 [2] = target: Flag-VPS34 (UniProt Q8NEB9); experiment: in vitro pull-down, Western blot (FIG. 3B)

## HA-UBE3C (from UniProt Q15386 1-1083) (enzyme)
Flag-VPS34 [1]
  binding: binds
Flag-VPS34 [2]
  binding: binds
